This is an account of results in publication PMC6209670.

Chains of the proteins cited; added tags and fusions are not shown.
UniProt Q7Z434: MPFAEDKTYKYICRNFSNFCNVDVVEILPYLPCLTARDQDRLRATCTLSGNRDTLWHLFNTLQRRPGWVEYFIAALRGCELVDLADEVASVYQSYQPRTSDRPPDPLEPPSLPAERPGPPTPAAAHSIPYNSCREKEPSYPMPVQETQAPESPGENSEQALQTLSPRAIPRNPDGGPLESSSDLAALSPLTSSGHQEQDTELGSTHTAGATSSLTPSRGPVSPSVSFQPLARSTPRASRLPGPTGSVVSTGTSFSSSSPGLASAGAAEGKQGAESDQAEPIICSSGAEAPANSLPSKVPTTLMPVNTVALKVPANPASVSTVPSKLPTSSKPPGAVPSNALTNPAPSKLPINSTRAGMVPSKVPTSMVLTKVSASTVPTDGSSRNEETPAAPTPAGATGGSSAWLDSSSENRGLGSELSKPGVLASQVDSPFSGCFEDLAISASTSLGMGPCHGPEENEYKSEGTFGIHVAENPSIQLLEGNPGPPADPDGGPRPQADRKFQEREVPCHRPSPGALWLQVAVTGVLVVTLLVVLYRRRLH
UniProt P19474: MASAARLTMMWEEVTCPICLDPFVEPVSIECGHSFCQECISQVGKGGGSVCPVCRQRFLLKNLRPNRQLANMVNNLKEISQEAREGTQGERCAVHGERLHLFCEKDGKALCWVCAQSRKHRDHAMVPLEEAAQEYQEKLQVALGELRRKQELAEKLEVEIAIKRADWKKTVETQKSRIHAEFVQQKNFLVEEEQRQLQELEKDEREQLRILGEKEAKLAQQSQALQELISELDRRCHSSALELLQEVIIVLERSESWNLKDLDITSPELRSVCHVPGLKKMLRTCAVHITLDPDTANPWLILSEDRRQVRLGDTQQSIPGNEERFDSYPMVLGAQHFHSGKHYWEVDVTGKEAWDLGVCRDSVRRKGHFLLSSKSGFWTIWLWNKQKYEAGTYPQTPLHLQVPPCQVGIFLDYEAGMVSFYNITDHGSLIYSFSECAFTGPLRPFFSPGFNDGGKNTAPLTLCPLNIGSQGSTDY

These are yes or no findings as the source states them, for the method shown. Binding seen in cells or lysates may run through a third protein. Some entries that bind do so weakly or less than the wild type.

This assay concerns the target Flag-tagged MAVS, full-length (UniProt Q7Z434). As to the kind of experiment: co-IP; Cells transfected with Flag-MAVS, with or without CVB3 infection (MOI = 5); RIPA lysates immunoprecipitated with anti-Flag beads, washed six times with PBS; Western blot with anti-TRIM21 and anti-Flag. Background: Immunoblotting shows a protein as a band on a membrane.

Turning to “Tripartite motif-containing 21 (TRIM21) (from UniProt P19474 1-475)”, the binding entry is “binds”.
